Two substances from PMC3411107 can be followed below.

Changes are numbered by the printed parent chain. These are yes or no findings as the source states them, for the method shown. For part of these data: Binding can be weak; no strength is given. Where a sequence is shown, tags or fusion partners need not be part of it. For part of these data: In cells and extracts the contact can be indirect.

The target of experiment [1] is T1, REEP4-S152A-GFP (human) (UniProt Q9H6H4).
T1 sequence: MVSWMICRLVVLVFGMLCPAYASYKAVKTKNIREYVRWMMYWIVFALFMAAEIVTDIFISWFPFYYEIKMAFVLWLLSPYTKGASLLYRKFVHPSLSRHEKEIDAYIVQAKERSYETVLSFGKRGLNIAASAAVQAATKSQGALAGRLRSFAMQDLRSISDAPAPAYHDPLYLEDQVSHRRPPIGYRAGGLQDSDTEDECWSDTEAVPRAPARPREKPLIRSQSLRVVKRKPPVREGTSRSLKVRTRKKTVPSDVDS
Kind of experiment: condition: only cells not stimulated with phorbol ester; far-Western, overlay or dot blot; 14-3-3 Far-Western assay on REEP4-GFP proteins isolated (anti-GFP IP) from HEK293 cells that were not stimulated with phorbol ester; both purified.

The target in experiment [2] is T1, REEP4-S152A-GFP (human). The experiment is described as follows: condition: only phorbol ester-stimulated cells incubated with Gö6983 (1 µM for 30 min); far-Western, overlay or dot blot; 14-3-3 Far-Western assay on REEP4-GFP proteins isolated (anti-GFP IP) from HEK293 cells incubated with Gö6983 (1 µM for 30 min) before PMA (100 ng/ml for 30 min); both purified.
The target of experiment [3] is T2, REEP3-GFP (human) (UniProt Q6NUK4).
T2 sequence (chain, phosphoSer152; pSer225): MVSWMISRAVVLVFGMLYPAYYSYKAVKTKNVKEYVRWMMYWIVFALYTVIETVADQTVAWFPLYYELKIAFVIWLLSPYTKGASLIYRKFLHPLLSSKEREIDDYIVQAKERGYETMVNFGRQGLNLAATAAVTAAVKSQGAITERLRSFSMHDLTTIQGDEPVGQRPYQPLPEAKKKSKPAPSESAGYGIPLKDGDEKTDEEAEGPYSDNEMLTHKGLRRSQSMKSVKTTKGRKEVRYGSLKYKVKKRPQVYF
The experiment is described as follows: far-Western, overlay or dot blot; 14-3-3 Far-Western assay on REEP-GFP proteins isolated (anti-GFP IP) from lysates of transfected HEK293 cells; cells serum-starved 8 h, then with or without EGF, PMA, forskolin and the inhibitors BI-D1870, Gö6983, Gö6976, H-89; both purified.

The target of a further experiment is T3, REEP1-GFP (human) (UniProt Q9H902).
T3 sequence (chain, phosphoSer192): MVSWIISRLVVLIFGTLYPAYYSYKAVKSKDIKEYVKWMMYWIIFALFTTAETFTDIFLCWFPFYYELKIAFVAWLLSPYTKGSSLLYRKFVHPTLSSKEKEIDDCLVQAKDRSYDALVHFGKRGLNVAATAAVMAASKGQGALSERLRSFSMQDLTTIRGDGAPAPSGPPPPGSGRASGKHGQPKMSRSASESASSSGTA
Described as above.

Experiment [4] deals with T4, REEP4-GFP (wild-type) (human) (UniProt Q9H6H4).
T4 sequence (chain, phosphoserine at 152; phosphoserine at 224 in phorbol ester-stimulated cells): T1 sequence with A152S
The experiment is described as above.

The target of experiment [5] is T1, REEP4-S152A-GFP (human). Described as above.
Experiment [6] deals with T5, Ser224Ala-substituted REEP4 (REEP4-GFP) (human) (UniProt Q9H6H4).
T5 sequence: T1 sequence with A152S, S224A
Described as above.

For experiment [7], the target named is T6, GST-tagged REEP4 (Y65-end), phosphorylated in vitro with PKCζ (human) (UniProt Q9H6H4).
T6 sequence (chain, phosphoserine at 224 (the PKCζ-phosphorylated site)): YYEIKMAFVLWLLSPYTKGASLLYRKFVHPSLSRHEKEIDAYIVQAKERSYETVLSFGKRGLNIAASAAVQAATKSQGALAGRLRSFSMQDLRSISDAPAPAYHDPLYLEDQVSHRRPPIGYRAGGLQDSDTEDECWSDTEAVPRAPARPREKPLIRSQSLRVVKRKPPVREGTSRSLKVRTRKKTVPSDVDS
The experiment is described as follows: far-Western, overlay or dot blot; GST-tagged REEP proteins (Y65-end) purified from E. coli, phosphorylated in vitro with PKCζ; 500 ng protein analysed by 14-3-3 Far-Western assay; both purified.

Experiment [8] deals with T7, GST-tagged REEP3 (Y65-end), phosphorylated in vitro with PKCζ (human) (UniProt Q6NUK4).
T7 sequence (chain, phosphorylated in vitro with PKCζ; sites not stated): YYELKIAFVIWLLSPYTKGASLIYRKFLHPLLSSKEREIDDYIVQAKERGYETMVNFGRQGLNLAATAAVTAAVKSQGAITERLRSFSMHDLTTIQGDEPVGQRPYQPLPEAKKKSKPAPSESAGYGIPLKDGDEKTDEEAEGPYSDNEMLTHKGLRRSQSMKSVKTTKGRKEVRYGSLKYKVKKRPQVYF
Described as above.

In experiment [9] the target is T8, GST-tagged REEP2 (Y65-end), treated with PKCζ in vitro (human) (UniProt Q9BRK0).
T8 sequence (chain, incubated with PKCζ in vitro; sites not stated): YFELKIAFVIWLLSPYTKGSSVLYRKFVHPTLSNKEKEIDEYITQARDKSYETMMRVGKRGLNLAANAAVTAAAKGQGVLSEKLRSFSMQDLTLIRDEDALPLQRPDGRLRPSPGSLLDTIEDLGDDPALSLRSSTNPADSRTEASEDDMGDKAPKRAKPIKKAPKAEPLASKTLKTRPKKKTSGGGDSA
Described as above.

The target of experiment [10] is T9, GST-tagged REEP1 (Y65-end), treated with PKCζ in vitro (human) (UniProt Q9H902).
T9 sequence (chain, incubated with PKCζ in vitro; sites not stated): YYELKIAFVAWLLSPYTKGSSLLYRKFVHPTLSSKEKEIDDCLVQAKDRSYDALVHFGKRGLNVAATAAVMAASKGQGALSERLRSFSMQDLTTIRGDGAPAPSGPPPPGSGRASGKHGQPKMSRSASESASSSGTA
Described as above.

Experiment [11] has as its target T10, GST-tagged REEP4 (Y65-end) with Ser224 mutated to alanine, treated with PKCζ in vitro (human) (UniProt Q9H6H4).
T10 sequence: T6 sequence (chain, phosphoserine at 224 (the PKCζ-phosphorylated site)) with S160A
The description is as above.

The target of experiment [12] is T2, REEP3-GFP (human). The experiment is described as follows: co-IP; REEP-GFP proteins isolated from lysates (2.5 mg) of transfected HEK293 cells with GFP-Trap agarose (anti-GFP IP); co-purified endogenous RAB3GAP1, RAB3GAP2 and 14-3-3 detected by immunoblotting. Background: Immunoblotting shows a protein as a band on a membrane.
The target of the next experiment is T11, REEP2-GFP (human) (UniProt Q9BRK0).
T11 sequence (chain, phosphorylated on a serine residue analogous to REEP4-Ser152): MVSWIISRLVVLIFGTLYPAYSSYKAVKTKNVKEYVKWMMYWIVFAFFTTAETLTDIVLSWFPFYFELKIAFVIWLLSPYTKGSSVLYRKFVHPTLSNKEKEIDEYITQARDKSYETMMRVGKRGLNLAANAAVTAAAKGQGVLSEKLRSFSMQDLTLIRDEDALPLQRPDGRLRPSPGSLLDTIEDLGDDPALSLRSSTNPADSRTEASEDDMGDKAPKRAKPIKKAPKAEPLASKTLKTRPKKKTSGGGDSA
The description is as above.

For experiment [13], the target named is T4, REEP4-GFP (wild-type) (human). Described as above.

Consider “14-3-3 (probe of the 14-3-3 Far-Western assay)”, for which the binding result is “no binding” with REEP4-S152A-GFP (human) [1]; “no binding” in the experiment with REEP4-S152A-GFP (human) [2]; “binds” in the experiment with REEP3-GFP (human) [3]; “binds weakly” with REEP1-GFP (human); “binds” in experiment [4]; “binds” with REEP4-S152A-GFP (human) [5]. Further, the binding result is “binds weakly” in experiment [6]; “binds” in experiment [7]; “binds” in [8]; “no binding” in experiment [9]; “no binding” in experiment [10]; “no binding” in experiment [11].

With “endogenous 14-3-3 (human (endogenous in HEK293))”, the binding result in the experiment with REEP3-GFP (human) [12] is on record as “binds”; with REEP2-GFP (human), “no binding”; in [13] it was “binds”.
